Laboratory results as given in publication PMC9890698 (BMC Biology, 2023).

Protein sequences, listed by entry. Tags and fused reporters are not part of them.
UniProt P47900, whole entry: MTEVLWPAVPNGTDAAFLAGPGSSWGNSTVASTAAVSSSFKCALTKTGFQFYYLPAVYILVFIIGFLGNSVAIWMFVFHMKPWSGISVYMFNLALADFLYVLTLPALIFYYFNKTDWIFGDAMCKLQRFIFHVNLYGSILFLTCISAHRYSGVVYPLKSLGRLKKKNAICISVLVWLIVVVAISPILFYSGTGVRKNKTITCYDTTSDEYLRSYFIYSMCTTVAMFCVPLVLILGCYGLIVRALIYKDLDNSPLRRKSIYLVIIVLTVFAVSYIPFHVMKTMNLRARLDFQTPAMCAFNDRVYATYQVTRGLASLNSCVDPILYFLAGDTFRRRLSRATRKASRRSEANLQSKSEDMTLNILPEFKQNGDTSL

Assays:
[1] = tested on: Gαq protein in HEK293T cells (pcDNA3.1); assay: Gαq protein activation BRET2 assay in control HEK293T cells without receptor (pcDNA3.1 / 0 μg); settings: MRS2179 10 μM, 1 min, 0 µg receptor-encoding plasmid
Human P2Y1-R = Human P2Y1-R (Homo sapiens, UniProt P47900); assay: Gαq protein activation BRET2 assay (Gαq-RLuc8/GFP2-Gγ2/Gβ1) in HEK293T cells expressing P2Y1-R; assay type: cell-based; parameters: unit not given here; settings: 1 min

SMILES: CNc1ncnc2c1ncn2[C@H]1C[C@H](OP(=O)(O)O)[C@@H](COP(=O)(O)O)O1 [MRS2179]
- MRS2179-modulated BRET [1]: 0.02671, 0.02912, -0.002311, 0.03124, 0.06069, 0.02735
- MRS2179-modulated BRET (Human P2Y1-R; MRS2179 10 μM, 0.001 µg P2Y1-R plasmid): 0.02407, -0.01052, -0.0362, 0.04076, 0.02492, 0.02772, 0.04778
- MRS2179-modulated BRET (Human P2Y1-R; MRS2179 10 μM, 0.1 µg P2Y1-R plasmid): 0.03908, 0.03078, 0.07322, 0.004927, 0.02817, 0.0815, 0.152
- MRS2179-modulated BRET (Human P2Y1-R; MRS2179 10 μM, 1 µg P2Y1-R plasmid): 0.1498, 0.08739, 0.1024, 0.08426, 0.2275, 0.3378
- MRS2179-modulated BRET (Human P2Y1-R; MRS2179 10 μM, 4 µg P2Y1-R plasmid): 0.0811, 0.06722, 0.06675, 0.05235, 0.1593, 0.2256
- MRS2179-modulated BRET (Human P2Y1-R; [MRS2179] 1.00E-05 M): 0.03597, 0.07442, 0.06488, 0.0387, 0.02478
- MRS2179-modulated BRET (Human P2Y1-R; [MRS2179] 1.00E-06 M): -0.03733, 0.01557, 0.01473, 0.004022, -0.0107
- MRS2179-modulated BRET (Human P2Y1-R; [MRS2179] 1.00E-07 M): -0.03464, 0.03108, 0.01306, -0.001486, -0.00562
- MRS2179-modulated BRET (Human P2Y1-R; [MRS2179] 1.00E-08 M): -0.04585, -0.02666, 0.02532, -0.02408, -0.009435
- MRS2179-modulated BRET (Human P2Y1-R; [MRS2179] 1.00E-09 M): -0.02882, -0.03007, -0.01779, -0.02111, 0.00341
- MRS2179-modulated BRET (Human P2Y1-R; [MRS2179] 1.00E-10 M): -0.04142, -0.05181, 0.008003, -0.005473, -0.006573
- MRS2179-modulated BRET (Human P2Y1-R; [MRS2179] 5.00E-06 M): 0.02126, 0.0223, 0.04876, 0.0381, 0.0265

Certain results were filed several times, with different values. The list is limited to them. An entry can have further records. Values that stand side by side seem to repeat one measurement; a mean can stand among them.
